Measured data: PubChem BioAssay AID602196 (INSERM, 2012)
Assay: 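Knock-downs that protect lung cancer cells from cisplatin or sensitise them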. Cell system: human A549 lung cancer cells. Reagent: siRNA pair against human genes. Timing: 48 h transfection before cisplatin; time from cisplatin to read-out not stated. Challenge: cisplatin at a dose killing half of control-siRNA cells; exact dose and duration not given. Read-out: 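Cisplatin cell death as a shift from the 50% death seen with control siRNA; siRNAs toxic or growth-blocking alone scored 0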. Direction: two-siRNA summed score (-2 to +2): higher = both siRNAs protect from cisplatin killing; -2 means both sensitise; mean protection from cisplatin (shift in death) and protection from cisplatin (shift in death), siRNA C and protection from cisplatin (shift in death), siRNA D: higher = protection from cisplatin killing. Hit rule: 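Each siRNA scores 0 if harmful alone by LDH or WST-1, otherwise +1 if it reduces and -1 if it increases cisplatin killing; a gene is active when both siRNAs agree (sum +2 or -2)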. Calls: active = both siRNAs shift cisplatin killing the same way; inactive = no consistent shift, or siRNA harmful alone.
Here is an unselected part of about 23,000 reagents. Of all reagents, 455 (2%) are marked active. 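Active includes both protection and sensitisation; some change values fall well beyond the stated -50 to +50 range.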 Unmarked entries are inactive. Not stated in the record: the amount of reagent.

| target | two-siRNA summed score (-2 to +2) | mean protection from cisplatin (shift in death) (%) | protection from cisplatin (shift in death), siRNA C (%) | protection from cisplatin (shift in death), siRNA D (%) |
| --- | --- | --- | --- | --- |
| SCARF2 | -1 | -13.6 | -5.7 | -21.5 |
| PTPRVP | 1 | 13.5 | 5 | 21.9 |
| SETMAR | 0 | -6.4 | -13.1 | 0.4 |
| PTPRM | 0 | -0.7 | 17.9 | -19.2 |
| LOC283166 | 0 | 0.7 | -3.5 | 4.9 |
| PRPSAP2 | 0 | -0.8 | -2.2 | 0.7 |
| NEUROG1 | 0 | -1 | 2.3 | -4.2 |
| ECPAS | 0 | 9.6 | 20 | -0.7 |
| MOCS3 | 0 | -4.3 | 2.3 | -11 |
| LINC02112 | 0 | 0.6 | -1.5 | 2.8 |
| NXPH1 | 0 | 3.9 | 8.5 | -0.7 |
| NSMAF | -2 (active) | -25.4 | -27 | -23.8 |
| ALOXE3 | 0 | -6.5 | -11.7 | -1.2 |
| MAGOHB | 0 | -0.6 | -7.7 | 6.4 |
| RASL12 | 0 | 5.2 | -1.6 | 12.1 |
| FOXA1 | 0 | 8 | 9.1 | 6.8 |
| RNF186 | 0 | -12.9 | -11.6 | -14.1 |
| LOC440679 | 1 | 13.9 | 10.5 | 17.4 |
| NETO1 | 0 | 7.6 | 7 | 8.1 |
| TSPAN33 | 1 | 15.7 | 32.1 | -0.8 |
| PGF | 0 | 3.1 | -3.7 | 10 |
| TYSND1 | 0 | 3.7 | 13.6 | -6.1 |
| C14orf39 | 0 | 8.7 | 8.7 | 8.7 |

2 of these entries, reformatted:
target	two-siRNA summed score (-2 to +2)	mean protection from cisplatin (shift in death) (%)	protection from cisplatin (shift in death), siRNA C (%)	protection from cisplatin (shift in death), siRNA D (%)
ECPAS	0	9.6	20	-0.7
MOCS3	0	-4.3	2.3	-11
